Measured values taken from the supplement of paper PMC8728848.
The other results are listed elsewhere or left out.

Experiments:
Test in all cases: glycan array binding signal (z-score within array); higher = stronger binding
Details in all cases: glycan notation: IUPAC condensed, linker removed
[1] = molecular target: Man(a1-2)Man(a1-3)[Man(a1-2)Man(a1-6)]Man(a1-6)[Man(a1-2)Man(a1-2)Man(a1-3)]Man
Procedure, shortened: (§1)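 The binding signal is a Z-score computed within each array and averaged over linkers. Arrays of the same protein sequence at different concentrations or buffers were also averaged together. Data originate from 3228 arrays in the Consortium for Functional Glycomics database, kept only where the protein sequence was available.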

[2] = molecular target: Man(a1-2)Man(a1-3)[Man(a1-2)Man(a1-6)]Man(a1-6)[Man(a1-2)Man(a1-2)Man(a1-3)]Man(b1-4)GlcNAc(b1-4)GlcNAc
Procedure, shortened: as §1

[3] = molecular target: Man(a1-2)Man(a1-3)[Man(a1-6)]Man(a1-6)[Man(a1-2)Man(a1-3)]Man(b1-4)GlcNAc(b1-4)GlcNAc
Procedure, shortened: as §1

[4] = molecular target: Man(a1-2)Man(a1-6)[Man(a1-3)]Man(a1-6)[Man(a1-2)Man(a1-2)Man(a1-3)]Man
Procedure, shortened: as §1

[5] = molecular target: Man(a1-2)Man(a1-6)[Man(a1-3)]Man(a1-6)[Man(a1-2)Man(a1-2)Man(a1-3)]Man(b1-4)GlcNAc(b1-4)GlcNAc
Procedure, shortened: as §1

Man(a1-3)[Man(a1-6)]Man = molecular target: Man(a1-3)[Man(a1-6)]Man
Procedure, shortened: as §1

[6] = molecular target: Man(a1-3)[Man(a1-6)]Man(a1-6)[Man(a1-2)Man(a1-3)]Man(b1-4)GlcNAc(b1-4)GlcNAc
Procedure, shortened: as §1

[7] = molecular target: Man(a1-3)[Man(a1-6)]Man(a1-6)[Man(a1-3)]Man
Procedure, shortened: as §1

[8] = molecular target: Man(a1-3)[Man(a1-6)]Man(a1-6)[Man(a1-3)]Man(b1-4)GlcNAc(b1-4)GlcNAc
Procedure, shortened: as §1

[9] = molecular target: Man(a1-3)[Man(a1-6)]Man(b1-4)GlcNAc(b1-4)GlcNAc
Procedure, shortened: as §1

[10] = molecular target: Man(a1-3)[Man(a1-6)]Man(b1-4)GlcNAc(b1-4)[Fuc(a1-6)]GlcNAc
Procedure, shortened: as §1

Man(a1-6)Man = molecular target: Man(a1-6)Man
Procedure, shortened: as §1

Man(b1-4)GlcNAc = molecular target: Man(b1-4)GlcNAc
Procedure, shortened: as §1

MurNAc(b1-4)GlcNAc = molecular target: MurNAc(b1-4)GlcNAc
Procedure, shortened: as §1

Neu5Ac(a2-3)Gal = molecular target: Neu5Ac(a2-3)Gal
Procedure, shortened: as §1

[11] = molecular target: Neu5Ac(a2-3)Gal(b1-3)GalNAc
Procedure, shortened: as §1

[12] = molecular target: Neu5Ac(a2-3)Gal(b1-3)GalNAc(b1-3)Gal(a1-4)Gal(b1-4)Glc
Procedure, shortened: as §1

[13] = molecular target: Neu5Ac(a2-3)Gal(b1-3)GalNAc(b1-4)[Neu5Ac(a2-3)]Gal(b1-4)Glc
Procedure, shortened: as §1

[14] = molecular target: Neu5Ac(a2-3)Gal(b1-3)GalNAc(b1-4)[Neu5Ac(a2-8)Neu5Ac(a2-3)]Gal(b1-4)Glc
Procedure, shortened: as §1

[15] = molecular target: Neu5Ac(a2-3)Gal(b1-3)GalNAc6S
Procedure, shortened: as §1

[16] = molecular target: Neu5Ac(a2-3)Gal(b1-3)GlcNAc
Procedure, shortened: as §1

[17] = molecular target: Neu5Ac(a2-3)Gal(b1-3)GlcNAc(b1-2)Man
Procedure, shortened: as §1

[18] = molecular target: Neu5Ac(a2-3)Gal(b1-3)GlcNAc(b1-2)Man(a1-3)[GlcNAc(b1-4)][Neu5Ac(a2-3)Gal(b1-3)GlcNAc(b1-2)Man(a1-6)]Man(b1-4)GlcNAc(b1-4)GlcNAc
Procedure, shortened: as §1

[19] = molecular target: Neu5Ac(a2-3)Gal(b1-3)GlcNAc(b1-2)Man(a1-3)[Neu5Ac(a2-3)Gal(b1-3)GlcNAc(b1-2)Man(a1-6)]Man(b1-4)GlcNAc(b1-4)GlcNAc
Procedure, shortened: as §1

[20] = molecular target: Neu5Ac(a2-3)Gal(b1-3)GlcNAc(b1-3)Gal(b1-3)GlcNAc
Procedure, shortened: as §1

[21] = molecular target: Neu5Ac(a2-3)Gal(b1-3)GlcNAc(b1-3)Gal(b1-4)GlcNAc
Procedure, shortened: as §1

[22] = molecular target: Neu5Ac(a2-3)Gal(b1-3)GlcNAc(b1-3)GalNAc
Procedure, shortened: as §1

[23] = molecular target: Neu5Ac(a2-3)Gal(b1-3)GlcNAc(b1-4)Gal(b1-4)Glc
Procedure, shortened: as §1

[24] = molecular target: Neu5Ac(a2-3)Gal(b1-3)GlcNAc(b1-6)GalNAc
Procedure, shortened: as §1

[25] = molecular target: Neu5Ac(a2-3)Gal(b1-3)GlcNAc6S
Procedure, shortened: as §1

B1: GS7807I-bvu-563-22-563 (Bacteroides vulgatus) (protein)
chain: IFSSCTDDFEKLNTSNIQVDPADLPFAAQCTEPMTYCYPPQQNMFQFWTNLTIDLYGGYFMTPNGNFTNGDMGENRGHSGGMYENYYLHIFNNTRRIIAQCDASGERGLSGVMRIVQAYGTLMTTDAYGPIPYSSILSGENEVYFEFDSQKDLYKAMLEDLSTAITDISAMGADEIAKLKSFDCWCNGDKDLWVKIANTMKLRMALRLSKRETEAGNAGMNLKAIATEAAQNTLATVNKDILIDKSLENEMWLMFNWGDCGFNANLVTIMSGTKDPRQPLYMTLNTGDIKNEAGTTTVAANSQYLGIRFASGLPAKPNSWGNFSGWIQGNNGSSYSMPLPIMKAAEAYFLLAEAKLRWDIGSESVKNLYENGIRVSMTNELAYRGAYAGIKEYPEGAVDAYINGTSTQIDYTDPIKAELSTPAVNKLSVKWDESASNEEKLERIITQKWLALFPLSTEGWAEQRRTGYPRFFPAFVNESNGAVNTEEGVRRVIYSSQAYDANAKGVEGGIKLLDEENSSKFGISGDKGGTHLWWDNADKGNF
[1]
  glycan array binding signal (z-score): 0.613
[2]
  glycan array binding signal (z-score): 0.646
[3]
  glycan array binding signal (z-score): -1.19
[4]
  glycan array binding signal (z-score): -0.237
[5]
  glycan array binding signal (z-score): -0.188
Man(a1-3)[Man(a1-6)]Man
  glycan array binding signal (z-score): -0.159
[6]
  glycan array binding signal (z-score): -0.164
[7]
  glycan array binding signal (z-score): 0.672
[8]
  glycan array binding signal (z-score): 0.24
[9]
  glycan array binding signal (z-score): -0.233
[10]
  glycan array binding signal (z-score): 0.226
Man(a1-6)Man
  glycan array binding signal (z-score): -0.623
Man(b1-4)GlcNAc
  glycan array binding signal (z-score): -1.7
MurNAc(b1-4)GlcNAc
  glycan array binding signal (z-score): -0.797
Neu5Ac(a2-3)Gal
  glycan array binding signal (z-score): 0.778
[11]
  glycan array binding signal (z-score): 0.162
[12]
  glycan array binding signal (z-score): -0.082
[13]
  glycan array binding signal (z-score): -1.07
[14]
  glycan array binding signal (z-score): -0.767
[15]
  glycan array binding signal (z-score): -0.22
[16]
  glycan array binding signal (z-score): 0.76
[17]
  glycan array binding signal (z-score): -0.412
[18]
  glycan array binding signal (z-score): 0.131
[19]
  glycan array binding signal (z-score): 0.568
[20]
  glycan array binding signal (z-score): -0.718
[21]
  glycan array binding signal (z-score): -0.15
[22]
  glycan array binding signal (z-score): -1.07
[23]
  glycan array binding signal (z-score): -0.293
[24]
  glycan array binding signal (z-score): -1.17
[25]
  glycan array binding signal (z-score): 0.987
